This note sets out measurements from paper PMC4619598.

Results are given in words; binding and its absence hold for the method and conditions named. For some assays here: In cells and extracts the contact can be indirect. Some entries that bind do so weakly or less than the wild type. Sequences can lack the tags named with a protein.

Assay [1] concerns the target T1, ROS1 (full length) fused with split luciferase (Arabidopsis thaliana) (UniProt Q9SJQ6).
T1 sequence: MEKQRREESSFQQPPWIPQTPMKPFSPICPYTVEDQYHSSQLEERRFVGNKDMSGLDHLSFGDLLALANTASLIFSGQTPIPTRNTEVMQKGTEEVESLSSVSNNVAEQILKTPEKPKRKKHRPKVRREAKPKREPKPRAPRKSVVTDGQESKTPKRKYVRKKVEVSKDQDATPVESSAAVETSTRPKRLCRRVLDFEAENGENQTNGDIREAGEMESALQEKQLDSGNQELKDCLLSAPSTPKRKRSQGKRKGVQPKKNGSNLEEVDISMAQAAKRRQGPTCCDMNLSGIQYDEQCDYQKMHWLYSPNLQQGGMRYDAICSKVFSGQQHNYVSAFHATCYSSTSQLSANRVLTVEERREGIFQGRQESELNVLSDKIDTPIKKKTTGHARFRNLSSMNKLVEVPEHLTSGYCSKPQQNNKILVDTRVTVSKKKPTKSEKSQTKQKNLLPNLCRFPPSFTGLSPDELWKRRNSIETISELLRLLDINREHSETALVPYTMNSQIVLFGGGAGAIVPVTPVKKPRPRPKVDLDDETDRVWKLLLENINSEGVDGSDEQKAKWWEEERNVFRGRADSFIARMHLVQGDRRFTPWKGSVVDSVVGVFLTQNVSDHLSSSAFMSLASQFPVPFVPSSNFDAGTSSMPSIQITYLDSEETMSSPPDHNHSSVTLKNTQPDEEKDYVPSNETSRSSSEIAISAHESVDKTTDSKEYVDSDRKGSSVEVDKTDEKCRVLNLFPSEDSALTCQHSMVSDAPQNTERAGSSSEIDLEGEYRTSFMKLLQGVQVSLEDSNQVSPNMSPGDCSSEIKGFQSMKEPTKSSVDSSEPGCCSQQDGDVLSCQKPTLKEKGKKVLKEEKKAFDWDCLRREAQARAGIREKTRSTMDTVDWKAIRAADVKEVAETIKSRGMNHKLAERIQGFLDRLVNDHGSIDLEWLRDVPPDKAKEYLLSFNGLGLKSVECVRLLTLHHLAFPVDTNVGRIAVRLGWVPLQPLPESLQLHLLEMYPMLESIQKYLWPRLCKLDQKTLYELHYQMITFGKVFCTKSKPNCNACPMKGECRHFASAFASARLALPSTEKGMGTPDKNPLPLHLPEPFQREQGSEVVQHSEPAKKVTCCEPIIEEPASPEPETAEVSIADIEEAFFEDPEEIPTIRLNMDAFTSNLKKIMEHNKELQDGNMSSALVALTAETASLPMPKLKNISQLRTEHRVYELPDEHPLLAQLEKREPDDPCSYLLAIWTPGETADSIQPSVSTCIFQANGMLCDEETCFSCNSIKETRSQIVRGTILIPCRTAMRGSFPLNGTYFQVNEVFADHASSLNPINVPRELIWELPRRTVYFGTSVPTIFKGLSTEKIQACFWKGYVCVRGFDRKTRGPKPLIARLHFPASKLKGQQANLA
In words: split reporter; split luciferase in Nicotiana benthamiana (tobacco) leaves, 3 day-post-infiltration; empty vectors as negative control; CCD camera.

Assay [2] has as its target T2, AE7 fused with split luciferase (Arabidopsis thaliana) (UniProt Q9C9G6).
T2 sequence: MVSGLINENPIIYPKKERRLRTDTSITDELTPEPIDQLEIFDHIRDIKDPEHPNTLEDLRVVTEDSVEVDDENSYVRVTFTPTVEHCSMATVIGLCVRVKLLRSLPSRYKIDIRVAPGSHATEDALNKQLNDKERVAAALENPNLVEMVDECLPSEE
Description: split reporter; split luciferase, constructs co-transfected into Arabidopsis protoplasts, overnight incubation; empty vectors as negative control; CCD camera.

The target of assay [3] is T1, ROS1 (full length) fused with split luciferase (Arabidopsis thaliana). The assay is described as above.
The target in assay [4] is T3, AE7 in the BD vector (Arabidopsis thaliana) (UniProt Q9C9G6).
T3 sequence: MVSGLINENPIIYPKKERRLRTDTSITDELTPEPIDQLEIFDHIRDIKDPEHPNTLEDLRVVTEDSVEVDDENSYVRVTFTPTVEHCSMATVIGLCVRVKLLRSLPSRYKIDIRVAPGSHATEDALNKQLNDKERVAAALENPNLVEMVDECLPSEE
Description: two-hybrid; yeast two-hybrid, pDEST 22 (AD) and pDEST 32 (BD); growth on SD-L/T/H media.

Assay [5] has as its target T4, ROS1 in the BD vector (Arabidopsis thaliana) (UniProt Q9SJQ6).
T4 sequence: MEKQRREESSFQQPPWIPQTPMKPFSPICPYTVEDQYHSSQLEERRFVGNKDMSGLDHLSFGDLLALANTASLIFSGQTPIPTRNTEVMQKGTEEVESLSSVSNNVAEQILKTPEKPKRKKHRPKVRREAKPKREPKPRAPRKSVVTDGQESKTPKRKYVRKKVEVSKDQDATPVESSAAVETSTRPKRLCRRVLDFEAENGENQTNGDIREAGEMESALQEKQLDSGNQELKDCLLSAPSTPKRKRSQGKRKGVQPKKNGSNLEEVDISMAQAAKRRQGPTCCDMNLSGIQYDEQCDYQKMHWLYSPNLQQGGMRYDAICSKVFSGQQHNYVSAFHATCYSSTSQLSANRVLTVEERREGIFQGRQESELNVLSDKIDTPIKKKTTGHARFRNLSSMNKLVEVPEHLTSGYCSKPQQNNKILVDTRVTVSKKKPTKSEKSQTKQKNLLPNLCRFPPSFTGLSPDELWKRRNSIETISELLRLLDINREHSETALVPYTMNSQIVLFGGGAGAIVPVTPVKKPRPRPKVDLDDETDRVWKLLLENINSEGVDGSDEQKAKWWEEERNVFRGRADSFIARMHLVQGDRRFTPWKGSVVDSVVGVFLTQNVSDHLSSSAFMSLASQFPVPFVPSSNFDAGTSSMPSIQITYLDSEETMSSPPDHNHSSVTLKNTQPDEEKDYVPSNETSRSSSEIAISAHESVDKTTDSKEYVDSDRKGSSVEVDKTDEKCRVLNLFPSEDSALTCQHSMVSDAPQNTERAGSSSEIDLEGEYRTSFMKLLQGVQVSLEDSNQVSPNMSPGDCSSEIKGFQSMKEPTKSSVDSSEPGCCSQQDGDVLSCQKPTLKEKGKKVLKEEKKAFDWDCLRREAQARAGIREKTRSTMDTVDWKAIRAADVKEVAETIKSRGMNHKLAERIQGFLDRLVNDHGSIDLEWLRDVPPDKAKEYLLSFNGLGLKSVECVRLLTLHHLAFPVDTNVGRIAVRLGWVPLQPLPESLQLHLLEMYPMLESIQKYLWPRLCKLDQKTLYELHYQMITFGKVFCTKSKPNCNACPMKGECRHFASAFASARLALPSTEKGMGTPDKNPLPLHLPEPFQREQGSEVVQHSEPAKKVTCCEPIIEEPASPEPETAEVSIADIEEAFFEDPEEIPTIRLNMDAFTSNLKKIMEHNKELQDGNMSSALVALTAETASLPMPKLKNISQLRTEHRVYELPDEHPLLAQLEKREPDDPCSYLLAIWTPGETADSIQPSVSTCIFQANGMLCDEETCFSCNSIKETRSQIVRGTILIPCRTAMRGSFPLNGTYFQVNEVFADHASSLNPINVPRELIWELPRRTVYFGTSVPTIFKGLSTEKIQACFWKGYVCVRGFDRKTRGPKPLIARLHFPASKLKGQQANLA
Described as above.

B1: MET18 fused with split luciferase (protein, UniProt Q0WVF8 1-1134)
chain: MMVEPNQLVQHLETFVDTNRSSSQQDDSLKAIASSLENDSLSITQLVREMEMYLTTTDNLVRARGILLLAEILDCLKAKPLNDTIVHTLVGFFSEKLADWRAMCGALVGCLALLKRKDVAGVVTDIDVQAMAKSMIQNVQVQALALHERKLAFELLECLLQQHSEAILTMGDLLVYAMCEAIDGEKDPQCLMIVFHLVELLAPLFPSPSGPLASDASDLFEVIGCYFPLHFTHTKDDEANIRREDLSRGLLLAISSTPFFEPYAIPLLLEKLSSSLPVAKVDSLKCLKDCALKYGVDRMKKHYGALWSALKDTFYSSTGTHLSFAIESLTSPGFEMNEIHRDAVSLLQRLVKQDISFLGFVVDDTRINTVFDTIYRYPQYKEMPDPSKLEVLVISQILSVSAKASVQSCNIIFEAIFFRLMNTLGIVEKTSTGDVVQNGNSTVSTRLYHGGLHLCIELLAASKDLILGFEECSPTSGCANSGCSMVKSFSVPLIQVFTSAVCRSNDDSVVDVYLGVKGLLTMGMFRGGSSPVSRTEFENILVTLTSIITAKSGKTVVWELALKALVCIGSFIDRYHESDKAMSYMSIVVDNLVSLACSSHCGLPYQMILEATSEVCSTGPKYVEKMVQGLEEAFCSSLSDFYVNGNFESIDNCSQLLKCLTNKLLPRVAEIDGLEQLLVHFAISMWKQIEFCGVFSCDFNGREFVEAAMTTMRQVVGIALVDSQNSIIQKAYSVVSSCTLPAMESIPLTFVALEGLQRDLSSRDELILSLFASVIIAASPSASIPDAKSLIHLLLVTLLKGYIPAAQALGSMVNKLGSGSGGTNTSRDCSLEEACAIIFHADFASGKKISSNGSAKIIVGSETTMSKICLGYCGSLDLQTRAITGLAWIGKGLLMRGNERVNEIALVLVECLKSNNCSGHALHPSAMKHAADAFSIIMSDSEVCLNRKFHAVIRPLYKQRCFSTIVPILESLIMNSQTSLSRTMLHVALAHVISNVPVTVILDNTKKLQPLILEGLSVLSLDSVEKETLFSLLLVLSGTLTDTKGQQSASDNAHIIIECLIKLTSYPHLMVVRETSIQCLVALLELPHRRIYPFRREVLQAIEKSLDDPKRKVREEAIRCRQAWASITSGSNIF
On to B1, for which the binding entry in assay [1], in assay [2] and in assay [3] was “binds” each time.

B2: MET18 in the AD vector (protein, UniProt Q0WVF8 1-1134)
chain: MMVEPNQLVQHLETFVDTNRSSSQQDDSLKAIASSLENDSLSITQLVREMEMYLTTTDNLVRARGILLLAEILDCLKAKPLNDTIVHTLVGFFSEKLADWRAMCGALVGCLALLKRKDVAGVVTDIDVQAMAKSMIQNVQVQALALHERKLAFELLECLLQQHSEAILTMGDLLVYAMCEAIDGEKDPQCLMIVFHLVELLAPLFPSPSGPLASDASDLFEVIGCYFPLHFTHTKDDEANIRREDLSRGLLLAISSTPFFEPYAIPLLLEKLSSSLPVAKVDSLKCLKDCALKYGVDRMKKHYGALWSALKDTFYSSTGTHLSFAIESLTSPGFEMNEIHRDAVSLLQRLVKQDISFLGFVVDDTRINTVFDTIYRYPQYKEMPDPSKLEVLVISQILSVSAKASVQSCNIIFEAIFFRLMNTLGIVEKTSTGDVVQNGNSTVSTRLYHGGLHLCIELLAASKDLILGFEECSPTSGCANSGCSMVKSFSVPLIQVFTSAVCRSNDDSVVDVYLGVKGLLTMGMFRGGSSPVSRTEFENILVTLTSIITAKSGKTVVWELALKALVCIGSFIDRYHESDKAMSYMSIVVDNLVSLACSSHCGLPYQMILEATSEVCSTGPKYVEKMVQGLEEAFCSSLSDFYVNGNFESIDNCSQLLKCLTNKLLPRVAEIDGLEQLLVHFAISMWKQIEFCGVFSCDFNGREFVEAAMTTMRQVVGIALVDSQNSIIQKAYSVVSSCTLPAMESIPLTFVALEGLQRDLSSRDELILSLFASVIIAASPSASIPDAKSLIHLLLVTLLKGYIPAAQALGSMVNKLGSGSGGTNTSRDCSLEEACAIIFHADFASGKKISSNGSAKIIVGSETTMSKICLGYCGSLDLQTRAITGLAWIGKGLLMRGNERVNEIALVLVECLKSNNCSGHALHPSAMKHAADAFSIIMSDSEVCLNRKFHAVIRPLYKQRCFSTIVPILESLIMNSQTSLSRTMLHVALAHVISNVPVTVILDNTKKLQPLILEGLSVLSLDSVEKETLFSLLLVLSGTLTDTKGQQSASDNAHIIIECLIKLTSYPHLMVVRETSIQCLVALLELPHRRIYPFRREVLQAIEKSLDDPKRKVREEAIRCRQAWASITSGSNIF
Consider B2, for which the binding result in assay [4] and in assay [5] was “binds” in each case.
